PubChem BioAssay AID1259254 | NCATS | 2017
Shown is one part, drawn at random, of about 59,000 reagents tested. About 1,550 of all reagents (2.6%) were called active. 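G2 share is only a proxy for re-replication; each gene was hit by three separate siRNAs, and active genes were retested.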 Entries without a mark were called inactive. Reagents against one gene are numbered here. Further read-outs or replicates are left out here. Not stated in the record: the amount of reagent.

Test: 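Gene knock-downs that lead to re-replication, shown by excess G2 DNA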 (primary screen)
System: human HCT116 colorectal cancer cells
Knock-down reagent: single siRNA against human genes
Duration: 3 days
Detection: 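Nuclei stained with Hoechst and imaged; cell-cycle phase assigned by DNA content; G2 share scaled per plate, non-targeting siRNA 0%, GMNN siRNA 100%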
Scale: G2 robust z-score: higher = more G2 cells, more excess DNA replication
Rule for the call: 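An siRNA counts as active if its G2 robust z-score lies at least 5 MADs above the screen median; here such calls match roughly 38% of GMNN control or more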

G2 robust z-score, by gene knocked down and reagent
SLC52A3: #1 -1.12; #2 -0.658; #3 -0.179
MAD1L1 (mitotic arrest deficient 1 like 1): #1 -1.26; #2 0.509; #3 2.8
IL33R (interleukin 33 receptor): #1 -1.08; #2 -0.276; #3 0.879
UCKL1 (uridine-cytidine kinase 1 like 1): #1 -0.877; #2 -0.0632; #3 -0.214

Reprinted from the listing for reference:
G2 robust z-score, by gene knocked down and reagent
IL33R (interleukin 33 receptor): #1 -1.08; #2 -0.276

The list goes on:
G2 robust z-score, by gene knocked down and reagent
SFRP2 (secreted frizzled related protein 2): #1 -0.964; #2 0.471; #3 -0.443
ELOC (elongin C): #1 -0.549; #2 0.93; #3 -0.669
PTPRO (protein tyrosine phosphatase receptor type O): #1 4.79; #2 -1.02; #3 -0.0988
TMPRSS4 (transmembrane serine protease 4): #1 -0.29; #2 5.23 (active); #3 -0.779
PICK1 (protein interacting with PRKCA 1): #1 1.35; #2 0.416; #3 -0.474
IFNL2 (interferon lambda 2): #1 -0.0393; #2 1.99; #3 -0.105
